# PubChem BioAssay AID686938 – Drosophila RNAi Screening Center | 2013
# Purpose: 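Looking for CRAC channel components and the factors controlling them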 (primary screen)
# System: Drosophila S2R+ cells
# Knock-down reagent: long dsRNA against Drosophila genes, about 0.25 µg dsRNA per well, roughly 10,000 cells
# Time to read-out: 5 days of knock-down before the calcium assay
# Conditions: thapsigargin (SERCA pump blocker) to empty calcium stores; entry signal taken 4 min after adding it
# Detection: 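Duplicate raw fluo-4 intensities per well from a plate reader, at rest and four minutes after thapsigargin emptied calcium stores; entry-to-rest ratio filled for only some wells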
# Reading the numbers: calcium entry signal: higher = stronger calcium signal after store depletion; entry to resting ratio: higher = more calcium entry relative to resting level; resting calcium signal: higher = higher resting calcium signal
# Call rule: 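Called when the plate z-score of the entry-to-rest ratio, mean of duplicates, falls below −3; wells with low overall dye signal (Fmax z below −2) or more than five off-targets excluded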
# Calls: active = strongly reduced calcium entry; inactive = no strong reduction
# The deposit covers about 23,000 reagents; shown is an unselected part of those that have a named target and a result. In the full data, 75 (0.33%) are marked active. 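Raw plate signals without normalisation; calls rest on plate z-scores that were not deposited; ratio present for only 364 wells.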 The record does not give: the dose of the treatment.
predicted target,dsRNA,"calcium entry signal, replicate 1 (fluorescence units)","calcium entry signal, replicate 2 (fluorescence units)",entry to resting ratio,"resting calcium signal, replicate 1 (fluorescence units)","resting calcium signal, replicate 2 (fluorescence units)",Call
lncRNA:mimi,DRSC21429,4.47e7,3.43e7,,2.48e7,1.65e7,inactive
b6,DRSC18740,3.30e7,4.60e7,2,1.67e7,1.78e7,inactive
Arl4,DRSC17156,4.99e7,5.65e7,2,2.44e7,2.18e7,inactive
cnc,DRSC14676,3.72e7,5.01e7,,2.02e7,1.92e7,inactive
cnc,DRSC15289,4.10e7,3.66e7,,2.01e7,1.81e7,inactive
cnc,DRSC15600,4.31e7,5.52e7,,2.22e7,2.30e7,inactive
cnc,DRSC15601,3.69e7,5.96e7,,1.89e7,2.44e7,inactive
Ssrp,DRSC04658,1.39e7,,,8.53e6,,inactive
CG13724,DRSC10053,2.76e7,5.19e7,,1.47e7,2.05e7,inactive
Tom40,DRSC18796,2.33e7,1.80e7,,1.25e7,1.09e7,inactive
CG13972,DRSC14715,2.18e7,3.65e7,,1.31e7,1.72e7,inactive
CG8746,DRSC07257,3.82e7,4.53e7,,1.76e7,1.89e7,inactive
Cec-Psi1,DRSC21956,3.81e7,9.68e7,,1.71e7,4.53e7,inactive
CG4793,DRSC01966,4.49e7,3.64e7,,1.95e7,1.65e7,inactive
CG2533,DRSC19855,3.40e7,6.95e7,,1.62e7,2.84e7,inactive
Pfdn5,DRSC16183,4.11e7,2.76e7,,1.89e7,1.22e7,inactive
CG7968,DRSC01903,4.63e7,3.03e7,,2.15e7,1.49e7,inactive
CG18568,DRSC06768,3.03e7,2.88e7,,1.34e7,1.44e7,inactive
CG33232 (retired record),DRSC08187,4.66e7,3.82e7,,2.09e7,1.88e7,inactive
CG33232 (retired record),DRSC08495,4.50e7,5.40e7,,2.19e7,2.14e7,inactive
CG14607,DRSC12551,4.73e7,4.38e7,,1.85e7,1.98e7,inactive
CG18011,DRSC06697,4.21e7,3.85e7,,1.74e7,1.81e7,inactive
CG18011,DRSC06706,2.55e7,3.09e7,,1.17e7,1.30e7,inactive
Obp28a,DRSC03394,3.67e7,3.84e7,,1.74e7,1.72e7,inactive
MKP-4,DRSC19567,2.06e7,2.47e7,,1.15e7,1.09e7,inactive
Ssl2,DRSC14395,3.84e7,5.21e7,,1.96e7,2.28e7,inactive
Ssl2,DRSC22796,3.94e7,4.60e7,,1.86e7,2.16e7,inactive
MESR6,DRSC10720,4.46e7,5.66e7,,2.00e7,3.74e7,inactive
dysc,DRSC10273,2.62e7,4.78e7,,1.49e7,2.44e7,inactive
dysc,DRSC11040,3.15e7,3.49e7,,1.72e7,1.61e7,inactive
dysc,DRSC22334,4.07e7,6.88e7,,1.90e7,3.23e7,inactive
dysc,DRSC22437,3.80e7,3.20e7,,1.94e7,1.66e7,inactive
dysc,DRSC22824,2.85e7,3.86e7,,1.46e7,1.88e7,inactive
dysc,DRSC23128,3.62e7,4.36e7,,1.77e7,1.94e7,inactive
Ir60d,DRSC04218,4.26e7,4.65e7,,2.08e7,2.06e7,inactive
CG14050,DRSC18594,4.68e7,4.83e7,2.2,2.12e7,2.18e7,inactive
CG34375,DRSC14684,6.03e7,5.47e7,,2.78e7,2.18e7,inactive
CG34375,DRSC14685,5.76e7,5.55e7,,2.63e7,2.28e7,inactive
Tnks,DRSC14154,7.79e7,2.24e7,,5.29e7,1.00e7,inactive
btsz,DRSC14982,3.31e7,4.65e7,,1.67e7,6.46e7,inactive
btsz,DRSC15222,3.44e7,4.66e7,,1.61e7,5.72e7,inactive
btsz,DRSC15320,3.20e7,4.36e7,,1.60e7,7.28e7,inactive
btsz,DRSC16231,3.25e7,4.76e7,,1.62e7,7.93e7,inactive
btsz,DRSC23250,2.97e7,3.16e7,,1.79e7,1.50e7,inactive

Ordered by “calcium entry signal, replicate 1 (fluorescence units)” (lowest first): some entries from above
predicted target,dsRNA,"calcium entry signal, replicate 1 (fluorescence units)","calcium entry signal, replicate 2 (fluorescence units)",entry to resting ratio,"resting calcium signal, replicate 1 (fluorescence units)","resting calcium signal, replicate 2 (fluorescence units)",Call
Ssrp,DRSC04658,1.39e7,,,8.53e6,,inactive
CG13972,DRSC14715,2.18e7,3.65e7,,1.31e7,1.72e7,inactive
Tom40,DRSC18796,2.33e7,1.80e7,,1.25e7,1.09e7,inactive
CG13724,DRSC10053,2.76e7,5.19e7,,1.47e7,2.05e7,inactive
cnc,DRSC15601,3.69e7,5.96e7,,1.89e7,2.44e7,inactive
CG8746,DRSC07257,3.82e7,4.53e7,,1.76e7,1.89e7,inactive
